From the supplement of paper PMC4604168 (melanoma cell lines)
Some of the results follow. Many values rest on one well or one pass, so single values are uncertain.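 Imaging used 1,536-well plates; nuclei positive for cleaved PARP by antibody were divided by total DNA-stained nuclei to yield the apoptosis fraction. Doses for screening kept most cells viable, and cell lines differ markedly in resting and induced cleaved-PARP levels.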

What was measured:
Test in all cases: cleaved PARP positive nuclei fraction relative to DMSO control; melanoma cells; higher = more apoptosis
Details in all cases: library dose: low library concentration; 72 h
[1] = tested on: MeWo
[2] = tested on: RPMI7951
[3] = tested on: RVH-421
[4] = tested on: SkMel28
[5] = tested on: SkMel2
[6] = tested on: SkMel30
[7] = tested on: UACC62
[8] = tested on: SkMel5
[9] = tested on: UACC257

| Structure (SMILES) | cleaved PARP positive nuclei fraction [1] [%] | cleaved PARP positive nuclei fraction [2] [%] | cleaved PARP positive nuclei fraction [3] [%] | cleaved PARP positive nuclei fraction [4] [%] | cleaved PARP positive nuclei fraction [5] [%] | cleaved PARP positive nuclei fraction [6] [%] | cleaved PARP positive nuclei fraction [7] [%] | cleaved PARP positive nuclei fraction [8] [%] | cleaved PARP positive nuclei fraction [9] [%] |
| --- | --- | --- | --- | --- | --- | --- | --- | --- | --- |
| CC(=O)O[C@@]12CO[C@@H]1C[C@H](O)[C@@]1(C)C(=O)[C@H](O)C3=C(C)[C@@H](OC(=O)[C@H](O)[C@@H](NC(=O)OC(C)(C)C)c4ccccc4)C[C@@](O)([C@@H](OC(=O)c4ccccc4)[C@H]21)C3(C)C [Docetaxel] + O=C(O)c1ccc2c(c1)nc(Nc1cccc(Cl)c1)c1ccncc12 [CX4945] (first compound 0.0001 µM, partner dose 0.4 µM) | 974 | 181 | 190 | 335 | 304 | 726 | 1240 |  |  |
| Cn1cnc2c(F)c(Nc3ccc(Br)cc3Cl)c(C(=O)NOCCO)cc21 [selumetinib] + C=CCNC1=C2C[C@@H](C)C[C@H](OC)[C@H](O)[C@@H](C)/C=C(\C)[C@H](OC(N)=O)[C@@H](OC)/C=C\C=C(/C)C(=O)NC(=CC1=O)C2=O [Tanespimycin] (first compound 0.015 µM, partner dose 0.002 µM) | 121 | 87.6 | 151 | 143 |  | 70.5 | 170 |  |  |
| C[C@@H](N)c1ccc(C(=O)Nc2ccnc3[nH]ccc23)cc1 + CN(c1ncccc1CNc1nc(Nc2ccc3c(c2)CC(=O)N3)ncc1C(F)(F)F)S(C)(=O)=O [PF562271] (first compound 0.4 µM, partner dose 0.08 µM) | 284 | 430 | 147 | 107 | 191 | 59.1 | 36 |  |  |
| CCN(CC)CCNC(=O)c1c(C)[nH]c(/C=C2\C(=O)Nc3ccc(F)cc32)c1C [sunitinib] + CC1(C)NC(=O)N(c2ccc([N+](=O)[O-])c(C(F)(F)F)c2)C1=O [nilutamide] (first compound 0.4 µM, partner dose 1 µM) | 442 | 100 | 58.1 | 38 |  | 172 | 189 | 77.9 | 137 |
| Cn1cnc2c(F)c(Nc3ccc(Br)cc3Cl)c(C(=O)NOCCO)cc21 [selumetinib] + C=C(c1ccc(C(=O)O)cc1)c1cc2c(cc1C)C(C)(C)CCC2(C)C [Bexarotene] (first compound 0.015 µM, partner dose 2 µM) | 126 | 47.3 | 272 | 53.6 |  | 39.6 | 328 |  |  |
| CC1(C)CCC(c2ccc(Cl)cc2)=C(CN2CCN(c3ccc(C(=O)NS(=O)(=O)c4ccc(N[C@H](CCN5CCOCC5)CSc5ccccc5)c(S(=O)(=O)C(F)(F)F)c4)cc3)CC2)C1 + Cn1cnc2c(F)c(Nc3ccc(Br)cc3Cl)c(C(=O)NOCCO)cc21 [selumetinib] (first compound 0.4 µM, partner dose 0.015 µM) | 741 | 149 | 142 | 60 |  | 238 | 109 |  |  |
| CC(=O)O[C@@]12CO[C@@H]1C[C@H](O)[C@@]1(C)C(=O)[C@H](O)C3=C(C)[C@@H](OC(=O)[C@H](O)[C@@H](NC(=O)OC(C)(C)C)c4ccccc4)C[C@@](O)([C@@H](OC(=O)c4ccccc4)[C@H]21)C3(C)C [Docetaxel] + CC(C)C[C@H](NC(=O)[C@H](Cc1ccccc1)NC(=O)c1cnccn1)B(O)O [Bortezomib] (first compound 0.0001 µM, partner dose 0.001 µM) | 873 | 302 | 77.3 | 655 |  | 261 | 531 |  |  |
| CS(=O)(=O)c1ccc(C(=O)Nc2ccc(Cl)c(-c3ccccn3)c2)c(Cl)c1 [vismodegib] + CCCS(=O)(=O)Nc1ccc(F)c(C(=O)c2c[nH]c3ncc(Cl)cc23)c1F [PLX4720] (first compound 1 µM, partner dose 0.08 µM) | 302 | 82.1 | 135 | 74.5 | 76.7 | 86.7 | 222 |  |  |
| Cn1sc(=O)n(Cc2ccccc2)c1=O + NCC(=O)Nc1ccc(-n2nc(C(F)(F)F)cc2-c2ccc3c(ccc4ccccc43)c2)cc1 [OSU03012] (first compound 0.4 µM, partner dose 1 µM) | 54.3 | 94.5 | 71.5 | 99.4 |  | 124 | 336 | 40.1 | 175 |
| Cn1sc(=O)n(Cc2ccccc2)c1=O + C=C(c1ccc(C(=O)O)cc1)c1cc2c(cc1C)C(C)(C)CCC2(C)C [Bexarotene] (first compound 0.4 µM, partner dose 2 µM) | 145 | 145 | 169 | 89.6 | 91.1 | 84.7 | 66.6 |  |  |
| CCCCCCCCc1ccc(CCC(N)(CO)CO)cc1 [fingolimod] + O=c1cc(-c2cccc3c2Sc2ccccc2S3)oc(N2CCOCC2)c1 [KU55933] (first compound 2 µM, partner dose 1 µM) | 30.9 | 144 | 30.4 | 414 |  | 136 | 183 | 69.5 | 47.8 |
| Cn1cnc2c(F)c(Nc3ccc(Br)cc3Cl)c(C(=O)NOCCO)cc21 [selumetinib] + O=C(O)c1ccc2c(c1)nc(Nc1cccc(Cl)c1)c1ccncc12 [CX4945] (first compound 0.015 µM, partner dose 0.4 µM) | 153 | 187 | 218 | 40.8 |  | 33 | 112 |  |  |
| CC1(C)CCC(c2ccc(Cl)cc2)=C(CN2CCN(c3ccc(C(=O)NS(=O)(=O)c4ccc(N[C@H](CCN5CCOCC5)CSc5ccccc5)c(S(=O)(=O)C(F)(F)F)c4)cc3)CC2)C1 + Nc1nc(F)nc2c1ncn2[C@@H]1O[C@H](CO)[C@@H](O)[C@@H]1O [fludarabine] (first compound 0.4 µM, partner dose 0.2 µM) | 2500 | 370 | 234 | 699 | 1270 | 4230 | 678 |  |  |
| C[C@]1(O)C[C@@H](c2nc(-c3ccc4ccc(-c5ccccc5)nc4c3)c3c(N)nccn32)C1 + Nc1nc(F)nc2c1ncn2[C@@H]1O[C@H](CO)[C@@H](O)[C@@H]1O [fludarabine] (first compound 0.4 µM, partner dose 0.2 µM) | 808 | 62.7 | 111 | 75 |  | 4220 | 277 |  |  |
| C[C@]1(O)C[C@@H](c2nc(-c3ccc4ccc(-c5ccccc5)nc4c3)c3c(N)nccn32)C1 + CC(=O)c1c(C)c2cnc(Nc3ccc(N4CCNCC4)cn3)nc2n(C2CCCC2)c1=O [palbociclib] (first compound 0.4 µM, partner dose 0.04 µM) | 48.2 | 150 | 56.3 | 251 |  | 63.6 | 158 |  |  |
| CC1(C)CCC(c2ccc(Cl)cc2)=C(CN2CCN(c3ccc(C(=O)NS(=O)(=O)c4ccc(N[C@H](CCN5CCOCC5)CSc5ccccc5)c(S(=O)(=O)C(F)(F)F)c4)cc3)CC2)C1 + Nc1cccc2c1CN(C1CCC(=O)NC1=O)C2=O [lenalidomide] (first compound 0.4 µM, partner dose 1 µM) | 171 | 95.7 | 201 | 38.9 |  | 93.9 | 211 |  |  |
| NC(=O)c1ccc(N(C(N)=O)c2c(F)cccc2F)nc1-c1ccc(F)cc1F + CO[C@H]1C[C@@H]2CC[C@@H](C)[C@@](O)(O2)C(=O)C(=O)N2CCCC[C@H]2C(=O)O[C@H]([C@H](C)C[C@@H]2CC[C@@H](OCCO)[C@H](OC)C2)CC(=O)[C@H](C)/C=C(\C)[C@@H](O)[C@@H](OC)C(=O)[C@H](C)C[C@H](C)/C=C/C=C/C=C/1C [everolimus] (first compound 0.4 µM, partner dose 0.02 µM) | 180 | 59.8 | 211 | 444 |  | 136 | 392 |  |  |
| Cn1cnc2c(F)c(Nc3ccc(Br)cc3Cl)c(C(=O)NOCCO)cc21 [selumetinib] + OCCn1cc(-c2cnc3nnn(Cc4ccc5ncccc5c4)c3n2)cn1 [PF04217903] (first compound 0.015 µM, partner dose 1 µM) | 293 | 174 | 131 | 39.4 |  | 178 | 189 | 38.4 | 79.4 |
| NC(=O)c1ccc(N(C(N)=O)c2c(F)cccc2F)nc1-c1ccc(F)cc1F + CC(C)CCN1c2nc(Nc3cc(F)c(O)c(F)c3)ncc2N(C)C(=O)C1C [BID1870] (first compound 0.4 µM, partner dose 0.2 µM) | 120 | 305 | 69.4 | 196 |  | 37.5 | 114 | 216 | 102 |

Another view of part of the listing above.
Structure (SMILES) | cleaved PARP positive nuclei fraction [1] [%] | cleaved PARP positive nuclei fraction [2] [%] | cleaved PARP positive nuclei fraction [3] [%] | cleaved PARP positive nuclei fraction [4] [%] | cleaved PARP positive nuclei fraction [5] [%] | cleaved PARP positive nuclei fraction [6] [%] | cleaved PARP positive nuclei fraction [7] [%] | cleaved PARP positive nuclei fraction [8] [%] | cleaved PARP positive nuclei fraction [9] [%]
Cn1sc(=O)n(Cc2ccccc2)c1=O + NCC(=O)Nc1ccc(-n2nc(C(F)(F)F)cc2-c2ccc3c(ccc4ccccc43)c2)cc1 [OSU03012] (first compound 0.4 µM, partner dose 1 µM) | 54.3 | 94.5 | 71.5 | 99.4 |  | 124 | 336 | 40.1 | 175
Cn1sc(=O)n(Cc2ccccc2)c1=O + C=C(c1ccc(C(=O)O)cc1)c1cc2c(cc1C)C(C)(C)CCC2(C)C [Bexarotene] (first compound 0.4 µM, partner dose 2 µM) | 145 | 145 | 169 | 89.6 | 91.1 | 84.7 | 66.6 |  | 
CCCCCCCCc1ccc(CCC(N)(CO)CO)cc1 [fingolimod] + O=c1cc(-c2cccc3c2Sc2ccccc2S3)oc(N2CCOCC2)c1 [KU55933] (first compound 2 µM, partner dose 1 µM) | 30.9 | 144 | 30.4 | 414 |  | 136 | 183 | 69.5 | 47.8
Cn1cnc2c(F)c(Nc3ccc(Br)cc3Cl)c(C(=O)NOCCO)cc21 [selumetinib] + O=C(O)c1ccc2c(c1)nc(Nc1cccc(Cl)c1)c1ccncc12 [CX4945] (first compound 0.015 µM, partner dose 0.4 µM) | 153 | 187 | 218 | 40.8 |  | 33 | 112 |  | 
CC1(C)CCC(c2ccc(Cl)cc2)=C(CN2CCN(c3ccc(C(=O)NS(=O)(=O)c4ccc(N[C@H](CCN5CCOCC5)CSc5ccccc5)c(S(=O)(=O)C(F)(F)F)c4)cc3)CC2)C1 + Nc1nc(F)nc2c1ncn2[C@@H]1O[C@H](CO)[C@@H](O)[C@@H]1O [fludarabine] (first compound 0.4 µM, partner dose 0.2 µM) | 2500 | 370 | 234 | 699 | 1270 | 4230 | 678 |  | 
